Data taken from patent US20250353891A1 (MEDIMMUNE LIMITED, priority 2022, published 2025).
For some of these results: Part of at least one peptide drawing is inferred or uncertain, most often the ends. For some of these results: For at least one compound, name, drawing or mass did not settle the structure. Starred links: 1 amine or outer side, 2 acyl side, 3 side chain; linkers in the order of their positions; H or OH if unused. Non-standard residues stand in square brackets, D forms with d. Residues, ends and D or L forms follow the SMILES beside them. Groups on a side chain read outwards from the residue. *: point of attachment. C18 diacid = O=C(O)CCCCCCCCCCCCCCCCC(=O)*; γGlu = O=C(O)[C@H](CCC(=O)[*:2])N[*:1]; αMeF = C[C@](N)(Cc1ccccc1)C(=O)O; AEEA = NCCOCCOCC(=O)O; Aib = CC(C)(N)C(=O)O

Sequences of proteins named here, by UniProt entry; tags and fusion partners are left off. Residues count along the entry.
UniProt P47871, 26-477: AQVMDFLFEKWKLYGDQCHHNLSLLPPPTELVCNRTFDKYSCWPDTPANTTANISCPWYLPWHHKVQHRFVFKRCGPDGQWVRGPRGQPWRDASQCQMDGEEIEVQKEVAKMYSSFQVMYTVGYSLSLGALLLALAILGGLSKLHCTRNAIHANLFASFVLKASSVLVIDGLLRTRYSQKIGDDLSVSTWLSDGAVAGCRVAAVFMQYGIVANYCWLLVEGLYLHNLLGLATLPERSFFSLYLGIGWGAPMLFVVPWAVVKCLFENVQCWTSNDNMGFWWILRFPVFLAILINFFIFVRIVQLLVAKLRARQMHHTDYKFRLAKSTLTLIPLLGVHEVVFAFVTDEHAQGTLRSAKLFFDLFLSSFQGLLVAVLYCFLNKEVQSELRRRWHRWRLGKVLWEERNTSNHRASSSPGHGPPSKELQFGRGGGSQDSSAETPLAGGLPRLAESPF
UniProt P43220, 24-463: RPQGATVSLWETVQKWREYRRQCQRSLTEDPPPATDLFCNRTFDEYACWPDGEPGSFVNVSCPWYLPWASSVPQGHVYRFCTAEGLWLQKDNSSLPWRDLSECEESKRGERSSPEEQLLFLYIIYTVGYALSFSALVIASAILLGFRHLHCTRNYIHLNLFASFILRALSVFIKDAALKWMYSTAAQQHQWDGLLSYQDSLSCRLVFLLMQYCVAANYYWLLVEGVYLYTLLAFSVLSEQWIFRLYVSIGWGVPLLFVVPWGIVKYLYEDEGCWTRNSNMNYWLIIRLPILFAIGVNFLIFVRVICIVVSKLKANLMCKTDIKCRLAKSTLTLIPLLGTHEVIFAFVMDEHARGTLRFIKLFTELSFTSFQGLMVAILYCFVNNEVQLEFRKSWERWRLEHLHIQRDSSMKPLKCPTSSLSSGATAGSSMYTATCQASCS

How the values were obtained:
wildtype (WT) mice = experiment: Glucose change in wildtype mice; assay type: in vivo, mouse; conditions: s.c., 10 nmol/kg, 120 min vs 0 min, somatostatin pretreatment (octreotide) 30 min prior to cpd
Experimental: GLP-1R knockout (KO) and wildtype (WT) mice at 8-14 weeks of age were singly housed on standard chow diet (Envigo, 2918) and automatic water. They acclimated for a minimum of ˜1-2 weeks, and mice were sorted into groups (n=4-8/group) based on body weight. On day of study, mice were fasted briefly for 2 hrs prior to study start. In some studies, mice were pre-treated with octreotide (BaChem, 10 mg/kg) at 30 minutes prior to peptide injection. Glucose was measured via glucometer at various timepoints including-30 min (prior to octreotide when used in studies), 0 min (before peptide dose), 30, 60, 120, 180, 240, and 360 minutes. Since these studies are acute in nature, mice were re-used for multiple studies (no more than 3) and always allowed at least a minimum wash-out period of 1 week.

[1] = biological target: human glucagon receptor (hGCGR) (Homo sapiens, UniProt P47871); experiment: cAMP production (HTRF) in CHO cells expressing hGCGR; assay type: cell-based; design: expressed in transfected cells; conditions: read-out: hGluc-R EC50, Table 6, peptides modified at position 17, geometric mean
Experimental: (§1) Cells were re-suspended in assay buffer at a batch-dependent optimized concentration (typically hGLP-1R cells at 1×10^5 cells/mL, hGCGR cells at 2×10^5 cells/mL).
(§2) Cells were added to the assay plate using a multidrop dispenser and incubated at room temperature for 30 minutes before measuring the cAMP level using a cAMP dynamic 2 homogeneous time resolved Fluorescence (HTRF) kit (Cisbio Bioassays #62AM4PEJ) following the two-step protocol as per manufacturer's recommendations. In brief, anti-cAMP cryptate (donor fluorophore) and cAMP-d2 (acceptor fluorophore) were made up separately by diluting each 1 in 20 in conjugate and lysis buffer provided in the kit. Anti-CAMP cryptate was added to all wells of the assay plate, followed by cAMP-d2 added to all wells except non-specific binding (NSB) wells (to which conjugate and lysis buffer was added).
(§3) Data was transformed to % Delta F as described in the manufacturer's guidelines and analyzed by 4-parameter logistic fit to determine EC50 values.

[2] = biological target: human GLP-1 receptor (hGLP-1R) (Homo sapiens, UniProt P43220); experiment: cAMP production (HTRF) in CHO cells expressing hGLP-1R; assay type: cell-based; design: expressed in transfected cells
Experimental: as §1, §2, §3

CC[C@H](C)[C@H](NC(=O)[C@H](Cc1c[nH]c2ccccc12)NC(=O)[C@H](CCCCNC(=O)COCCOCCNC(=O)COCCOCCNC(=O)CC[C@H](NC(=O)CCCCCCCCCCCCCCCCC(=O)O)C(=O)O)NC(=O)[C@@H](NC(=O)[C@H](Cc1ccccc1)NC(=O)[C@H](CC(=O)O)NC(=O)[C@H](CCC(N)=O)NC(=O)[C@H](C)NC(=O)[C@H](C)NC(=O)[C@H](CCC(N)=O)NC(=O)[C@H](CO)NC(=O)[C@H](CC(=O)O)NC(=O)[C@H](CC(C)C)NC(=O)[C@](C)(Cc1ccccc1)NC(=O)[C@H](CCCCN)NC(=O)[C@H](CO)NC(=O)[C@@H](NC(=O)[C@H](CC(=O)O)NC(=O)[C@H](CO)NC(=O)[C@@H](NC(=O)[C@](C)(Cc1ccccc1)NC(=O)[C@H](CO)NC(=O)CNC(=O)[C@H](Cc1c[nH]cn1)NC(=O)C(C)(C)NC(=O)[C@@H](N)Cc1c[nH]cn1)[C@@H](C)O)C(C)C)C(C)C)C(=O)N[C@@H](C)C(=O)N[C@@H](CC(N)=O)C(=O)N[C@H](C(N)=O)[C@@H](C)O [Peptide 349] (H-H[Aib]HGS[αMeF]TSDVSK[αMeF]LDSQAAQDFVK([AEEA-AEEA-γGlu-C18 diacid])WIANT-NH2; N-terminus assumed)
WT % glucose change 120 min (wildtype (WT) mice): 4.9%

CC(C)C[C@H](NC(=O)[C@H](Cc1c[nH]c2ccccc12)NC(=O)[C@H](CCC(N)=O)NC(=O)[C@@H](NC(=O)[C@H](Cc1ccccc1)NC(=O)[C@H](CC(=O)O)NC(=O)[C@H](CCCNC(=N)N)NC(=O)[C@H](C)NC(=O)[C@H](CCCNC(=N)N)NC(=O)[C@H](CCCCNC(=O)COCCOCCNC(=O)COCCOCCNC(=O)CC[C@H](NC(=O)CCCCCCCCCCCCCCCCCCC(=O)O)C(=O)O)NC(=O)[C@@H](NC(=O)[C@H](CCC(=O)O)NC(=O)[C@H](CC(C)C)NC(=O)[C@](C)(Cc1ccccc1)NC(=O)[C@H](CCCCN)NC(=O)[C@H](CO)NC(=O)[C@@H](NC(=O)[C@H](CC(=O)O)NC(=O)[C@H](CO)NC(=O)[C@@H](NC(=O)[C@H](Cc1ccccc1)NC(=O)[C@@H](NC(=O)CNC(=O)[C@H](CCC(N)=O)NC(=O)C(C)(C)NC(=O)[C@@H](N)Cc1c[nH]cn1)[C@@H](C)O)[C@@H](C)O)C(C)C)[C@@H](C)O)C(C)C)C(=O)N[C@@H](CC(C)C)C(=O)N[C@@H](CCC(=O)O)C(=O)NC(C)(C)C(=O)NCC(=O)O [Peptide 444]
EC50 [1]: 1.76 nM
EC50 ([2]; read-out: hGLP-1R EC50, Table 6, peptides modified at position 17, cAMP in CHO hGLP-1R cells, geometric mean): 0.247 nM

CC[C@H](C)[C@H](NC(=O)[C@H](Cc1c[nH]c2ccccc12)NC(=O)[C@H](CCCCNC(=O)CC[C@H](NC(=O)CCCCCCCCCCCCCCCCC(=O)O)C(=O)O)NC(=O)[C@@H](NC(=O)[C@H](Cc1ccccc1)NC(=O)[C@H](CC(=O)O)NC(=O)[C@H](CCC(N)=O)NC(=O)[C@H](C)NC(=O)[C@H](C)NC(=O)[C@H](CCC(N)=O)NC(=O)[C@H](CO)NC(=O)[C@H](CC(=O)O)NC(=O)[C@H](CC(C)C)NC(=O)[C@](C)(Cc1ccccc1)NC(=O)[C@H](CCCCN)NC(=O)[C@H](CO)NC(=O)[C@@H](NC(=O)[C@H](CC(=O)O)NC(=O)[C@H](CO)NC(=O)[C@@H](NC(=O)[C@H](Cc1ccccc1)NC(=O)[C@@H](NC(=O)CNC(=O)[C@H](Cc1c[nH]cn1)NC(=O)C(C)(C)NC(=O)[C@@H](N)Cc1c[nH]cn1)[C@@H](C)O)[C@@H](C)O)C(C)C)C(C)C)C(=O)N[C@@H](C)C(=O)N[C@@H](CC(N)=O)C(=O)N[C@H](C(N)=O)[C@@H](C)O [Peptide 346]
% Relative Potency Ratio ([2]; % GLP-1R activity relative to GLP-1 / % GlucR activity relative to glucagon): 0.1
